Data as given in publication PMC3708844 (2013).
These are yes or no findings as the source states them, for the method shown. Binding seen in cells or lysates may run through a third protein. Some results given as binding are weak or reduced against the parent protein; the word gives no strength. Sequences can lack the tags named with a protein. One block for each binder: values may come before it.

Columns and labels:
[1] = target: T1, GST-SHI1 fusion protein (Arabidopsis thaliana) (UniProt Q8W4B1); experiment: pull-down; GST-SHI1 immobilised on GST Bind Resin, incubated with 35S-labelled in vitro translated HIS-cFRY2 for 30 min at room temperature in 20 mM Tris-HCl pH 7.2, 10 mM MgCl2, 2 mM DTT; washed with PBS; autoradiography; only the target purified
T1 sequence: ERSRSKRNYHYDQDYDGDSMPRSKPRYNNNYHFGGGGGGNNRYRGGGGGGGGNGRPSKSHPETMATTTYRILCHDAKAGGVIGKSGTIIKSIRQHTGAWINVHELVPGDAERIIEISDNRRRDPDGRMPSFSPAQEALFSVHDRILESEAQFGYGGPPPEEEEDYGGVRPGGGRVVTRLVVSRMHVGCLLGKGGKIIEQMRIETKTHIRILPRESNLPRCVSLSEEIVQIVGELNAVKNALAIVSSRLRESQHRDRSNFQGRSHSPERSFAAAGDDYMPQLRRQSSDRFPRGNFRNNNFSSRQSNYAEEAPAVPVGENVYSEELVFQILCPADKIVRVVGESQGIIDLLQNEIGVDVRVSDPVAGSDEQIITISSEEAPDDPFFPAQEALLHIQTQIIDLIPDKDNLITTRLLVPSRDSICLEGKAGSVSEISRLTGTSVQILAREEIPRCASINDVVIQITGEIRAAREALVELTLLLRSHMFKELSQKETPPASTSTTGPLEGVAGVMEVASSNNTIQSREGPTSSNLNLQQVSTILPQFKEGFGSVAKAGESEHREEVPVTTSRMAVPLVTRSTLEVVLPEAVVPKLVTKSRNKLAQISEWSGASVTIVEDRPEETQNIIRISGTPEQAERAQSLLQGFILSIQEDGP

[2] = target: T2, SHI1 fused with the N-terminal portion of the luciferase (Arabidopsis thaliana) (UniProt Q8W4B1); experiment: split reporter; split luciferase (Renilla reniformis) complementation, fusion proteins co-expressed in Arabidopsis protoplasts; luciferase imaging in 96-well plate
T2 sequence: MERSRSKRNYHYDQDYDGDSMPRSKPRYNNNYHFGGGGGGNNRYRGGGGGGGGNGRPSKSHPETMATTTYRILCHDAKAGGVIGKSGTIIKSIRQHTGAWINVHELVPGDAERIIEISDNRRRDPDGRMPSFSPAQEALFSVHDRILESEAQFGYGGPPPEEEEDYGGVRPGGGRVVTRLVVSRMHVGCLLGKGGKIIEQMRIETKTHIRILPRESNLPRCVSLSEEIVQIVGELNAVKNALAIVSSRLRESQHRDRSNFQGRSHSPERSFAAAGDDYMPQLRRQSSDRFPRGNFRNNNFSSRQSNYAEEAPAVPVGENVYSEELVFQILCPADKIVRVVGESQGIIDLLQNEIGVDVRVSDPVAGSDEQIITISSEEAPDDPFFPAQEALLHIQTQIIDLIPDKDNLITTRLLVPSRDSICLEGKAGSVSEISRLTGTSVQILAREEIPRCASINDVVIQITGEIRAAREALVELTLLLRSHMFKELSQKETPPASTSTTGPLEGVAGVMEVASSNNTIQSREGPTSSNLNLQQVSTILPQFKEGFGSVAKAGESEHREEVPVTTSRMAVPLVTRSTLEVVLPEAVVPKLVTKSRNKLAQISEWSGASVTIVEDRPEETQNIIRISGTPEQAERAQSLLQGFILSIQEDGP

[3] = target: T3, SHI1-nYFP (Arabidopsis thaliana) (UniProt Q8W4B1); experiment: split reporter; split YFP complementation in Arabidopsis protoplasts; fluorescence microscopy
T3 sequence: T2 sequence

binding [1]: binds
B1: HIS-cFRY2 (FRY2/CPL1 666-855, including the first dsRNA binding domain) (domain or fragment, UniProt Q5YDB6 666-855)
chain: MLHENRRPPKESLRRDEQLRSNNNLPDSHPFYGEDASWNQSSSRNSDLDFLPERSVSATETSADVLHGIAIKCGAKVEYKPSLVSSTDLRFSVEAWLSNQKIGEGIGKSRREALHKAAEASIQNLADGYMRANGDPGPSHRDATPFTNENISMGNANALNNQPFARDETALPVSSRPTDPRLEGSMRHTG
modifications: 35S-methionine labelled

binding [2]: binds
B2: FRY2/CPL1 fused with the C-terminal part of the luciferase (protein, UniProt Q5YDB6 1-967)
chain: MYSNNRVEVFHGDGRLGELEIYPSRELNQQQDDVMKQRKKKQREVMELAKMGIRISHFSQSGERCPPLAILTTISSCGLCFKLEASPSPAQESLSLFYSSCLRDNKTAVMLLGGEELHLVAMYSENIKNDRPCFWAFSVAPGIYDSCLVMLNLRCLGIVFDLDETLVVANTMRSFEDKIDGFQRRINNEMDPQRLAVIVAEMKRYQDDKNLLKQYIESDQVVENGEVIKVQSEIVPALSDNHQPLVRPLIRLQEKNIILTRINPMIRDTSVLVRMRPSWEELRSYLTAKGRKRFEVYVCTMAERDYALEMWRLLDPEGNLINTNDLLARIVCVKSGFKKSLFNVFLDGTCHPKMALVIDDRLKVWDEKDQPRVHVVPAFAPYYSPQAEAAATPVLCVARNVACGVRGGFFRDFDDSLLPRIAEISYENDAEDIPSPPDVSHYLVSEDDTSGLNGNKDPLSFDGMADTEVERRLKEAISASSAVLPAANIDPRIAAPVQFPMASASSVSVPVPVQVVQQAIQPSAMAFPSIPFQQPQQPTSIAKHLVPSEPSLQSSPAREEGEVPESELDPDTRRRLLILQHGQDTRDPAPSEPSFPQRPPVQAPPSHVQSRNGWFPVEEEMDPAQIRRAVSKEYPLDSEMIHMEKHRPRHPSFFSKIDNSTQSDRMLHENRRPPKESLRRDEQLRSNNNLPDSHPFYGEDASWNQSSSRNSDLDFLPERSVSATETSADVLHGIAIKCGAKVEYKPSLVSSTDLRFSVEAWLSNQKIGEGIGKSRREALHKAAEASIQNLADGYMRANGDPGPSHRDATPFTNENISMGNANALNNQPFARDETALPVSSRPTDPRLEGSMRHTGSITALRELCASEGLEMAFQSQRQLPSDMVHRDELHAQVEIDGRVVGEGVGSTWDEARMQAAERALSSVRSMLGQPLHKRQGSPRSFGGMSNKRLKPDFQRSLQRMPSSGRYS

binding [3]: binds
B3: FRY2-cYFP (protein, UniProt Q5YDB6 1-967)
chain: B2 chain
